These are yes or no findings as the source states them, for the method shown. Binding seen in cells or lysates may run through a third protein. Some binding calls cover weakened binding; strength is not graded here.

Amino acid sequences for entries named in this document (tags omitted). Residues count along the entry.
UniProt P08069, residues 31-1367: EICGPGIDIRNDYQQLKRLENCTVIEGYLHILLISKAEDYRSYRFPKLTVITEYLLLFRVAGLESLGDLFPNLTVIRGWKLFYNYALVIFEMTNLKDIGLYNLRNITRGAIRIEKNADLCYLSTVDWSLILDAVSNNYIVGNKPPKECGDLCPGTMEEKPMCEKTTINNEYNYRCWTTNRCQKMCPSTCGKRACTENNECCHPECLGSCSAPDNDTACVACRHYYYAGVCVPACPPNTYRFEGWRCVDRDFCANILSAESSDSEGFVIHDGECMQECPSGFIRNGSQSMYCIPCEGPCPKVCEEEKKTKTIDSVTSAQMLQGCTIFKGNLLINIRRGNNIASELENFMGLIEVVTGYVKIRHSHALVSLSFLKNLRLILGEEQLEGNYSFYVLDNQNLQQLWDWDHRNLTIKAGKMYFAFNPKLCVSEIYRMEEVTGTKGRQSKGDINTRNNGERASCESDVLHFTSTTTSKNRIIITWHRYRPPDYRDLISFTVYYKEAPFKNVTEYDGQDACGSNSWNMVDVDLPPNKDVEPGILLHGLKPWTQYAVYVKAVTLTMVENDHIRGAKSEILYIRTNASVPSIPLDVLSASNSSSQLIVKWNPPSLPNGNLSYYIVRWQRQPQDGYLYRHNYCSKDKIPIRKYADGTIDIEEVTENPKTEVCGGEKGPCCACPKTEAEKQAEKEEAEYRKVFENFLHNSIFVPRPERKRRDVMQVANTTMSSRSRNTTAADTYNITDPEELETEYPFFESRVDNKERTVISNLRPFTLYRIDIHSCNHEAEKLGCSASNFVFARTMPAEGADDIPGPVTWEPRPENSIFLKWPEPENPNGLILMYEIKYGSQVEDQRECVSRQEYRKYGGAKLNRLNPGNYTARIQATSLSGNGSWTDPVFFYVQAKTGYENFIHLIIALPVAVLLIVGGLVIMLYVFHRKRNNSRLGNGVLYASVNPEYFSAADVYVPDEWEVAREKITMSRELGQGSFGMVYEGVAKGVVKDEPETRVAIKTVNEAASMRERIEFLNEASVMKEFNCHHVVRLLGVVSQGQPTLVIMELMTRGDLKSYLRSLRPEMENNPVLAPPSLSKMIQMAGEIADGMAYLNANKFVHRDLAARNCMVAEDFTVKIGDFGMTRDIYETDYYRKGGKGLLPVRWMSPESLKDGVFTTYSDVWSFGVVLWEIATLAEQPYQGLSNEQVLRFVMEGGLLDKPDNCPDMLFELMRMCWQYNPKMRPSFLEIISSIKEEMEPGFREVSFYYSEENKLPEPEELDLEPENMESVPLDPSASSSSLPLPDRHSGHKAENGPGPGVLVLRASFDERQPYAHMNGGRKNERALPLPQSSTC
UniProt Q86TM6: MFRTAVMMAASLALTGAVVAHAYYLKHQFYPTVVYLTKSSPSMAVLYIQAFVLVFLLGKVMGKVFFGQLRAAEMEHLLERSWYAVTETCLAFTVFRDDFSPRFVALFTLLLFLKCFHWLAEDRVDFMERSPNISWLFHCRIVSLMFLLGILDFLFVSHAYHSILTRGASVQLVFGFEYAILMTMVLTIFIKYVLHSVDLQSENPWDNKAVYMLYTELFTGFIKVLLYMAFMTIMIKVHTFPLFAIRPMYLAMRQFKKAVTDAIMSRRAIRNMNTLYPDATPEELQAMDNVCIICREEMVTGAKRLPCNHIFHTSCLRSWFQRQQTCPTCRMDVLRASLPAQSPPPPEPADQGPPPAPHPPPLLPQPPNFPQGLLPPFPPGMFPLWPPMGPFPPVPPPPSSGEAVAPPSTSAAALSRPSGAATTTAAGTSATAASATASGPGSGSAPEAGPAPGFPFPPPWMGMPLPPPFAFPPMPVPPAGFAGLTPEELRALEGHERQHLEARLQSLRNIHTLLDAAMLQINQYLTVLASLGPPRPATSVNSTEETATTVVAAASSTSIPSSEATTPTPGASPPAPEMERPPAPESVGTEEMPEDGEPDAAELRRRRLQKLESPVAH

This assay concerns the target type 1 IGF receptor (IGF-1R) (human (endogenous in MCF-7)) (UniProt P08069). The experiment in a line: co-IP; endogenous proteins in MCF-7 cells pretreated with MG132 (10 uM) for 6 h; IP with HRD1 or IGF-1R antibodies, then immunoblotting; IgG as negative control; lysis buffer 50 mM Tris pH 7.4, 150 mM NaCl, 1 mM EDTA, 0.5% NP-40, 10% glycerol.

In the case of “HRD1 (3-hydroxy-3-methylglutaryl reductase degradation) (from UniProt Q86TM6 1-617) (enzyme)”, the binding result is on record as “binds”.

These data come from PMC4767476.
